# This is one part of the list.
# Sequences of proteins named here, by UniProt entry; tags and fusion partners are left off. A change or cut given only in a name is not applied to a line headed by its entry.
# UniProt P0C0S5, whole entry, looked up: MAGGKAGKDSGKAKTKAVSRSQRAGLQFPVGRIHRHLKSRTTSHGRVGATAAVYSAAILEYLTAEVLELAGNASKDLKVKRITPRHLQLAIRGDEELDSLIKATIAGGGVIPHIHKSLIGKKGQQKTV
# UniProt Q9P0R6: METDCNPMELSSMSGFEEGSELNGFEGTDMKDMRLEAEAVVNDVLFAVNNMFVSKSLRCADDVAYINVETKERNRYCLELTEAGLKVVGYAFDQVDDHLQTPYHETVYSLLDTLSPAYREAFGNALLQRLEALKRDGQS
# UniProt P02724: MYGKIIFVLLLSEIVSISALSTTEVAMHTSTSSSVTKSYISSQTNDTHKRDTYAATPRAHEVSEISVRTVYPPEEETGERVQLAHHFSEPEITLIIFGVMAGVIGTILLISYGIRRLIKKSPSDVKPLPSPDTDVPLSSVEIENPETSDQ
# UniProt Q16774: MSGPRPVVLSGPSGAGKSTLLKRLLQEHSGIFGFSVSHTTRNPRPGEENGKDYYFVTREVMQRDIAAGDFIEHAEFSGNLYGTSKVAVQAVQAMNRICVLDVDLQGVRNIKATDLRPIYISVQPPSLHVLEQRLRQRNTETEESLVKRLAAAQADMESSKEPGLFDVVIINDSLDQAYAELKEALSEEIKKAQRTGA
# UniProt P04921: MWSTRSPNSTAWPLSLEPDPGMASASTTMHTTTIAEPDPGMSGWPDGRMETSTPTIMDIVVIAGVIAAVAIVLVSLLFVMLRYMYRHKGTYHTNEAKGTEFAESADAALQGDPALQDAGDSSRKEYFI
# UniProt Q9BT25: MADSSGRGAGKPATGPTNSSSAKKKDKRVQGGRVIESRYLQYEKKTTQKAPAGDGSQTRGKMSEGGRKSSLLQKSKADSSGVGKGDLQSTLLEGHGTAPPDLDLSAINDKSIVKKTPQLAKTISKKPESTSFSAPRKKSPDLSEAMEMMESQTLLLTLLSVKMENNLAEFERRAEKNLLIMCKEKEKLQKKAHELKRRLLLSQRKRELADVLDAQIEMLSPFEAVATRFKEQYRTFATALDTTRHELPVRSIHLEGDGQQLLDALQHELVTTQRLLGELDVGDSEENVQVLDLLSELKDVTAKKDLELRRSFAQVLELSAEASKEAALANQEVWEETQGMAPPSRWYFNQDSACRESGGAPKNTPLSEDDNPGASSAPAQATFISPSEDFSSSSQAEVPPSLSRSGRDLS
# UniProt P55084: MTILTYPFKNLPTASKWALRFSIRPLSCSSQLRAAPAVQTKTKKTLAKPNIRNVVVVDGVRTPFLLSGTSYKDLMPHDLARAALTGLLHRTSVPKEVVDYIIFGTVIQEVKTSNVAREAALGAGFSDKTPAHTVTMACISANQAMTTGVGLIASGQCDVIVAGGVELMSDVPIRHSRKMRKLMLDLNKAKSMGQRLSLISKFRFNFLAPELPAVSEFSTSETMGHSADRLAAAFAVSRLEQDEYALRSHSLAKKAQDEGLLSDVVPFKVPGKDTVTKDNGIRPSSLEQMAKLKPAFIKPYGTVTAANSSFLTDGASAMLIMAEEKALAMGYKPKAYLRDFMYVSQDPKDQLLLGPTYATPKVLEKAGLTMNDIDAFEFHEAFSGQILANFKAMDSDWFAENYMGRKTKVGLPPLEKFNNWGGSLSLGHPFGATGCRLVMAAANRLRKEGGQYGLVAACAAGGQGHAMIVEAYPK
# UniProt Q9H6D7: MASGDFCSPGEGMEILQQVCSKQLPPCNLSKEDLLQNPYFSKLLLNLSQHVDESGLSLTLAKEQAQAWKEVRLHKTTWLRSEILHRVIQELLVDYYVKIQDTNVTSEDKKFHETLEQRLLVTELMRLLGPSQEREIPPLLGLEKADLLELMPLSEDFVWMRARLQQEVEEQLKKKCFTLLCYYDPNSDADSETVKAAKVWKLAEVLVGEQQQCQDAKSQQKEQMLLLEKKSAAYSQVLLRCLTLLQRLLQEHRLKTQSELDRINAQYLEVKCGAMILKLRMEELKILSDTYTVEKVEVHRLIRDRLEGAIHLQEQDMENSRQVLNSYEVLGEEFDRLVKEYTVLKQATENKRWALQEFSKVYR
# UniProt Q9BXW7: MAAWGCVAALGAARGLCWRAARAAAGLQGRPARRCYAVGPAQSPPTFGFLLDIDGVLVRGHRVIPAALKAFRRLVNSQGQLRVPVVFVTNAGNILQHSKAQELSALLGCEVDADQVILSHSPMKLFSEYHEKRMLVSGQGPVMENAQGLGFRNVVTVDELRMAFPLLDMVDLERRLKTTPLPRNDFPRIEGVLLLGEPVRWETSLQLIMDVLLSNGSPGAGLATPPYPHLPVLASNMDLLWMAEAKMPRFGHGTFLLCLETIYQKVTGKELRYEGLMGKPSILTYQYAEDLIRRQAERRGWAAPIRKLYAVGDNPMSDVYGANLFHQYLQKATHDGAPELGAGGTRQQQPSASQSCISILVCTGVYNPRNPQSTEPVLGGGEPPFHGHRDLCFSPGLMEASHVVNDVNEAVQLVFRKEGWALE
# UniProt P10412, whole entry, looked up: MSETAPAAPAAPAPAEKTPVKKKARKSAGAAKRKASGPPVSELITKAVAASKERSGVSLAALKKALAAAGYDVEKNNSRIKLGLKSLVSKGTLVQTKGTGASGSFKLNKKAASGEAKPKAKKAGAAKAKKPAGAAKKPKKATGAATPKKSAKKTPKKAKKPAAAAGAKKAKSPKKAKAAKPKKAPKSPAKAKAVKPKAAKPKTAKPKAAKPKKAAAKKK
# UniProt P02100: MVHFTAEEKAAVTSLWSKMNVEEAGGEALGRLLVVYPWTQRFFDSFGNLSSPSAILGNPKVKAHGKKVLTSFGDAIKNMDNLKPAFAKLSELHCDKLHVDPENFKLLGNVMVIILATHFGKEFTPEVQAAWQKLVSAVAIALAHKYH
# UniProt P08236: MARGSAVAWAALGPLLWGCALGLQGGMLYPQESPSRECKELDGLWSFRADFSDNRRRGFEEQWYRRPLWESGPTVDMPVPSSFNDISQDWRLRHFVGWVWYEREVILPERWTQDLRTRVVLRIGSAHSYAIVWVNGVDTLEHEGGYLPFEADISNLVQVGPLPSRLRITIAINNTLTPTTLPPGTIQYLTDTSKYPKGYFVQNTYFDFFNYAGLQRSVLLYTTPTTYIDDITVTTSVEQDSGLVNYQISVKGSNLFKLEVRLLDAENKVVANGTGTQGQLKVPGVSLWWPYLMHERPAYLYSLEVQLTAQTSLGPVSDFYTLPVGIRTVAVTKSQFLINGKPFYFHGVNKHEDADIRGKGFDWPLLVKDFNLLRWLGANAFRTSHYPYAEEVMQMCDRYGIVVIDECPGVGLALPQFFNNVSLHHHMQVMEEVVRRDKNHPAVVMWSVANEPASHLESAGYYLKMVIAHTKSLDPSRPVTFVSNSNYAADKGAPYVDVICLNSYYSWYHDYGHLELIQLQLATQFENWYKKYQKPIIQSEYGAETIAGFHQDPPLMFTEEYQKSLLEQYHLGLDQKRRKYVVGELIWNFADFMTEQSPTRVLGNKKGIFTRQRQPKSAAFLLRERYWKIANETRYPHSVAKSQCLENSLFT
# UniProt Q13888: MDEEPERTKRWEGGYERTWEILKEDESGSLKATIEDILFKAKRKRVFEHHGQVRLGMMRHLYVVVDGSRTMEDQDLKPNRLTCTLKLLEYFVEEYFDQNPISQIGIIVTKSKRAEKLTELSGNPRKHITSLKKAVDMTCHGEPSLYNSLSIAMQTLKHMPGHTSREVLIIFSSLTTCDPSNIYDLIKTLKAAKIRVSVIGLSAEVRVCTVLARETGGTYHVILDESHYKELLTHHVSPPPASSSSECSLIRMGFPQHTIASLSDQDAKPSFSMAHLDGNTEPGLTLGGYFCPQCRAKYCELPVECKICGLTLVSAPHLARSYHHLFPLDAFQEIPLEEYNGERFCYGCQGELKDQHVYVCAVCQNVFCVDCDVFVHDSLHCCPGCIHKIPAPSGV
# UniProt O00165, whole entry, looked up: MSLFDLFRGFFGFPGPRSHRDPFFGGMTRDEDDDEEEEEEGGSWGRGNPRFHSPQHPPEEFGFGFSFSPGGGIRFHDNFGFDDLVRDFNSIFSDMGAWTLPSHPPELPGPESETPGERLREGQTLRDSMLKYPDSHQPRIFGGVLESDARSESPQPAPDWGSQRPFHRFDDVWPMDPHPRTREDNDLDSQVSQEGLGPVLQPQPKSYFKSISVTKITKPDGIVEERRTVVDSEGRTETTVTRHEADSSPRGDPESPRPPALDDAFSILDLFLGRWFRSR
# UniProt Q99871: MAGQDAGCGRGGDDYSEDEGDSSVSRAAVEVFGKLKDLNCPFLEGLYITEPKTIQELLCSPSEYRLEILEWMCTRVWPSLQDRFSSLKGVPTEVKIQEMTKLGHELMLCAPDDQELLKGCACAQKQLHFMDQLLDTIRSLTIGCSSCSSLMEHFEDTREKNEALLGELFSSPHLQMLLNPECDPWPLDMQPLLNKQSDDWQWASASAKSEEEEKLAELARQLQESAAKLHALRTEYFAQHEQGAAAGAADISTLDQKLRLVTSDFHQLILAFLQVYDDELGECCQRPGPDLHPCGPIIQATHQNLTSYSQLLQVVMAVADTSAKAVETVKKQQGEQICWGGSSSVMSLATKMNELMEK
# UniProt P62993, whole entry, looked up: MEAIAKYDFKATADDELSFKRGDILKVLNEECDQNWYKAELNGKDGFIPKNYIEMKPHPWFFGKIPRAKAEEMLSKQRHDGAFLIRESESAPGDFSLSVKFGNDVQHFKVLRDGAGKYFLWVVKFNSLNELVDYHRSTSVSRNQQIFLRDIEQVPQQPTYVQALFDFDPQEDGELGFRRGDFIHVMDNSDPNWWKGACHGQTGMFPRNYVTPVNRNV
# UniProt P49840: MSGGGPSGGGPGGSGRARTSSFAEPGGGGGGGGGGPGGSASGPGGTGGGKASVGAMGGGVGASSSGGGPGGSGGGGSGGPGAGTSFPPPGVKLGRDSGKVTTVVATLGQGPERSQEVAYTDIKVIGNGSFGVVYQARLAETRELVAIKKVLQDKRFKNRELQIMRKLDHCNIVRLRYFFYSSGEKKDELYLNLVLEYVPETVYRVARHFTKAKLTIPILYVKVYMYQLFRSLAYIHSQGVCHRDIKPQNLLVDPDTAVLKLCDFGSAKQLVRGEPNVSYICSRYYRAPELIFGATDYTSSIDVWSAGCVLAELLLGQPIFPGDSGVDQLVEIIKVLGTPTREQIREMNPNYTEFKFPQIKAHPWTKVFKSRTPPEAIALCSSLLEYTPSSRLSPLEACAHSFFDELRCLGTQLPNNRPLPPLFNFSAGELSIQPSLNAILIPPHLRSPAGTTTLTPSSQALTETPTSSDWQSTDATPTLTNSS
# UniProt P49590: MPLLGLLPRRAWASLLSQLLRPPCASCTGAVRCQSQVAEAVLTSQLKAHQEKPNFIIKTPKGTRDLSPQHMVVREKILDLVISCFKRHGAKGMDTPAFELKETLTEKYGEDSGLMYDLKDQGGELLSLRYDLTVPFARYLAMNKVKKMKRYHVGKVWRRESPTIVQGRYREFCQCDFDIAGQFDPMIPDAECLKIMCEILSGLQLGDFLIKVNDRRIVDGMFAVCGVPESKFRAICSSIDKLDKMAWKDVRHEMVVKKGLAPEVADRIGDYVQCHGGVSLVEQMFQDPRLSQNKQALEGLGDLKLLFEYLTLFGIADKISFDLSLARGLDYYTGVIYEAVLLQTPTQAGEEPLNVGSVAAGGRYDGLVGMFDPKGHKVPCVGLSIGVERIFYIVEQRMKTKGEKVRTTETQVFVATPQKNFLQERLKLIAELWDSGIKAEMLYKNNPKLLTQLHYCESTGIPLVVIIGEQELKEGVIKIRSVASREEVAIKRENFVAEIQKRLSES
# UniProt Q8NEC7: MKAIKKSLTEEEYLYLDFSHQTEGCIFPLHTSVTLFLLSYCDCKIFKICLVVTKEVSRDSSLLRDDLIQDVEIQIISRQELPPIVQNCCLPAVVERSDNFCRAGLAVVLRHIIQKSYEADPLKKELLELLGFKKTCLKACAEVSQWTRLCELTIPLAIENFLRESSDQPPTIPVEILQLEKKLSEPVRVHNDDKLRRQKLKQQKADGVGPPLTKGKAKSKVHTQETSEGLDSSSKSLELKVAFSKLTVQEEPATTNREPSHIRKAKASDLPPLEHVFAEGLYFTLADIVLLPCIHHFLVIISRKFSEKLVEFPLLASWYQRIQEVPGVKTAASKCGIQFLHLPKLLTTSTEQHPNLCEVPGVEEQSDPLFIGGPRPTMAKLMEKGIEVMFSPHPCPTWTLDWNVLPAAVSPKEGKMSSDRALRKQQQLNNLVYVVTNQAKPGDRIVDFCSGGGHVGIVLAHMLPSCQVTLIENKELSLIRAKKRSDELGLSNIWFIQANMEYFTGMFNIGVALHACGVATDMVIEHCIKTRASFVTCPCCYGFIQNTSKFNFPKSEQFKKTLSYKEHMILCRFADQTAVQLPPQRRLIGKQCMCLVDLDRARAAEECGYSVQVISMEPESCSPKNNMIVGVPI
# UniProt Q8TAA5: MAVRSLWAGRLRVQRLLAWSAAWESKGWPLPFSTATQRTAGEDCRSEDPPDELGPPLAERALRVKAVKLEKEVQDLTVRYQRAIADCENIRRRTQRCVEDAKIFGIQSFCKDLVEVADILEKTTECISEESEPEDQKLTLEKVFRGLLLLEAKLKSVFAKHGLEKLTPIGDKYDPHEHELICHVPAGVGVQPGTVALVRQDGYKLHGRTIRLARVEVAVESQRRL
# Legend:
# Experiment in all cases: log2 fold change, soluble protein after heating vs DMSO (PISA); higher = thermal stabilisation; K562 lysate, 10 uM; active = over 0.2 and 3.5 SD of the protein, either way, in both replicates (recomputed)
# lapatinib = compound: CS(=O)(=O)CCNCc1ccc(-c2ccc3ncnc(Nc4ccc(OCc5cccc(F)c5)c(Cl)c4)c3c2)o1 [lapatinib]
# In short: (§1)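 The values are log-two fold changes in thermal stability compared with solvent controls and come from duplicates. They were obtained by TMTpro 16plex LC-MS/MS, with channel sums equalised, on the supernatant after 21,000xg for 90 min. That supernatant came from crude K562 extract at 1 mg/mL protein treated with 10 μM compound for 30 min, heated for 3 min across 48°C-58°C, pooled and brought to 0.5% NP-40 at 4°C.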
# pictilisib = compound: CS(=O)(=O)N1CCN(Cc2cc3nc(-c4cccc5[nH]ncc45)nc(N4CCOCC4)c3s2)CC1 [pictilisib]
# In short: as §1
# crizotinib = compound: C[C@@H](Oc1cc(-c2cnn(C3CCNCC3)c2)cnc1N)c1c(Cl)ccc(F)c1Cl [crizotinib]
# In short: as §1
# [1] = compound: C[C@H](C1=CC=C(C=C1)C(=O)NC2=C3C=CNC3=NC=C2)N
# In short: as §1
# duvelisib = compound: C[C@H](Nc1ncnc2nc[nH]c12)c1cc2cccc(Cl)c2c(=O)n1-c1ccccc1 [duvelisib]
# In short: as §1
# gandotinib = compound: Cc1cc(Nc2cc(CN3CCOCC3)c3nc(C)c(Cc4ccc(Cl)cc4F)n3n2)n[nH]1 [gandotinib]
# In short: as §1
# tozasertib = compound: Cc1cc(Nc2cc(N3CCN(C)CC3)nc(Sc3ccc(NC(=O)C4CC4)cc3)n2)n[nH]1 [tozasertib]
# In short: as §1
# doramapimod = compound: Cc1ccc(-n2nc(C(C)(C)C)cc2NC(=O)Nc2ccc(OCCN3CCOCC3)c3ccccc23)cc1 [doramapimod]
# In short: as §1
# bafetinib = compound: Cc1ccc(NC(=O)c2ccc(CN3CC[C@H](N(C)C)C3)c(C(F)(F)F)c2)cc1Nc1nccc(-c2cncnc2)n1 [bafetinib]
# In short: as §1
# [2] = compound: Cc1cccc(CC(=O)N2CCc3c2ccc(-c2cn(C)c4ncnc(N)c24)c3F)n1
# In short: as §1
Target,log2 fold change (lapatinib),log2 fold change (pictilisib),log2 fold change (crizotinib),log2 fold change [1],log2 fold change (duvelisib),log2 fold change (gandotinib),log2 fold change (tozasertib),log2 fold change (doramapimod),log2 fold change (bafetinib),log2 fold change [2]
H2AZ1 (UniProt P0C0S5),inactive: -0.017,inactive: -0.028,inactive: 0.01,inactive: 0.024,inactive: -0.061,inactive: 0.016,inactive: -0.048,inactive: 0.032,inactive: -0.097,inactive: -0.031
GSKIP (UniProt Q9P0R6),inactive: 0.069,inactive: -0.04,inactive: -0.06,inactive: 0.183,inactive: 0.021,inactive: 0.028,inactive: -0.095,inactive: 0.173,inactive: -0.025,inactive: -0.064
GYPA (UniProt P02724),inactive: 0.074,inactive: -0.01,inactive: 0.017,active: 0.528,inactive: 0.013,inactive: -0.197,inactive: -0.02,inactive: -0.033,inactive: 0.229,inactive: -0.234
GSTZ1 (UniProt G3V4T6),inactive: 0,inactive: 0.04,inactive: -0.015,inactive: -0.067,inactive: 0.028,inactive: 0.061,inactive: 0.004,inactive: -0.035,inactive: -0.071,inactive: 0.146
GSE1 (UniProt Q14687),inactive: 0.006,inactive: -0.032,inactive: -0.014,inactive: -0.073,inactive: -0.015,inactive: 0.011,inactive: 0.008,inactive: -0.019,inactive: -0.006,inactive: 0.051
HAUS2 (UniProt Q9NVX0),inactive: -0.033,inactive: -0.187,inactive: -0.055,inactive: 0.167,inactive: 0.049,inactive: -0.159,inactive: 0.067,inactive: -0.047,inactive: 0.005,inactive: -0.017
GUK1 isoform 2 (UniProt Q16774),inactive: 0.032,inactive: 0.002,inactive: -0.098,inactive: -0.161,inactive: -0.026,inactive: 0.061,inactive: -0.037,inactive: 0.022,inactive: -0.126,inactive: 0.132
GTPBP4 (UniProt Q9BZE4),inactive: 0.007,inactive: -0.013,inactive: -0.079,inactive: -0.01,inactive: 0.018,inactive: -0.016,inactive: -0.005,inactive: -0.003,inactive: -0.041,inactive: 0.029
GYPC (UniProt P04921),inactive: 0.032,inactive: -0.048,inactive: 0.026,inactive: -0.008,inactive: -0.068,inactive: -0.004,inactive: 0.021,inactive: -0.047,inactive: 0,inactive: -0.04
HAUS8 (UniProt Q9BT25),inactive: -0.022,inactive: -0.02,inactive: -0.055,inactive: 0.057,inactive: -0.075,inactive: 0.045,inactive: 0.027,inactive: -0.007,inactive: -0.037,inactive: 0.027
HADHB (UniProt P55084),inactive: 0.1,inactive: 0.067,inactive: 0.073,inactive: -0.041,inactive: 0.037,inactive: 0.138,inactive: 0.016,inactive: 0.218,inactive: 0.014,inactive: -0.093
HAUS4 (UniProt Q9H6D7),inactive: 0.021,inactive: -0.02,inactive: -0.083,inactive: -0.063,inactive: -0.031,inactive: -0.009,inactive: 0.042,inactive: 0.043,inactive: 0.003,inactive: 0.099
HDHD5 (UniProt Q9BXW7),inactive: 0.011,inactive: 0.012,inactive: -0.017,inactive: -0.147,inactive: 0.058,inactive: -0.005,inactive: 0.059,inactive: 0.131,inactive: 0.033,inactive: 0.116
HAUS3 (UniProt Q68CZ6),inactive: -0.011,inactive: -0.001,inactive: -0.084,inactive: 0.013,inactive: -0.042,inactive: -0.059,inactive: 0.014,inactive: -0.034,inactive: -0.11,inactive: 0.079
H1-4 (UniProt P10412),inactive: 0.005,inactive: -0.007,inactive: 0.022,inactive: -0.15,inactive: -0.014,inactive: 0.033,inactive: -0.117,inactive: -0.009,inactive: -0.021,inactive: -0.001
GTF2H4 (UniProt Q92759),inactive: -0.026,inactive: 0.027,inactive: -0.025,inactive: 0.061,inactive: -0.01,inactive: -0.14,inactive: 0.031,inactive: 0,inactive: -0.039,inactive: 0.038

# Whole records, quoted from the list. Values in the order: log2 fold change (lapatinib)	log2 fold change (pictilisib)	log2 fold change (crizotinib)	log2 fold change [1]	log2 fold change (duvelisib)	log2 fold change (gandotinib)	log2 fold change (tozasertib)	log2 fold change (doramapimod)	log2 fold change (bafetinib)	log2 fold change [2]
# HAUS8 (UniProt Q9BT25) is listed as inactive: -0.022	inactive: -0.02	inactive: -0.055	inactive: 0.057	inactive: -0.075	inactive: 0.045	inactive: 0.027	inactive: -0.007	inactive: -0.037	inactive: 0.027
# GUK1 isoform 2 (UniProt Q16774) is listed as inactive: 0.032	inactive: 0.002	inactive: -0.098	inactive: -0.161	inactive: -0.026	inactive: 0.061	inactive: -0.037	inactive: 0.022	inactive: -0.126	inactive: 0.132

# Continuation:

Target,log2 fold change (lapatinib),log2 fold change (pictilisib),log2 fold change (crizotinib),log2 fold change [1],log2 fold change (duvelisib),log2 fold change (gandotinib),log2 fold change (tozasertib),log2 fold change (doramapimod),log2 fold change (bafetinib),log2 fold change [2]
HBE1 (UniProt P02100),inactive: 0.035,inactive: -0.016,inactive: 0.032,inactive: 0.028,inactive: -0.005,inactive: 0,inactive: -0.002,inactive: 0,inactive: -0.016,inactive: -0.044
GYG1 isoform 2 (UniProt P46976),inactive: -0.036,inactive: -0.045,inactive: 0.069,inactive: 0.029,inactive: 0.074,inactive: -0.035,inactive: 0.187,inactive: 0.024,inactive: -0.021,inactive: -0.043
GUSB (UniProt P08236),inactive: -0.097,inactive: -0.012,inactive: -0.044,active: -0.547,inactive: 0.017,inactive: 0.228,inactive: 0.02,inactive: 0.037,inactive: -0.057,inactive: 0.27
GTF2H2 (UniProt Q13888),inactive: 0.008,inactive: -0.061,inactive: -0.02,inactive: -0.031,inactive: 0.009,inactive: 0.008,inactive: 0.022,inactive: -0.053,inactive: -0.06,inactive: 0.077
HAX1 (UniProt O00165),inactive: 0.021,inactive: 0.011,inactive: -0.027,inactive: -0.002,inactive: -0.071,inactive: -0.08,inactive: -0.004,inactive: 0.028,inactive: -0.009,inactive: 0.059
HDHD3 (UniProt Q9BSH5),inactive: -0.012,inactive: -0.041,inactive: -0.037,inactive: 0.034,inactive: -0.016,inactive: -0.023,inactive: 0.12,inactive: 0.017,inactive: 0.038,inactive: -0.032
HAUS7 isoform 2 (UniProt Q99871),inactive: 0.022,inactive: 0.012,inactive: -0.053,inactive: 0.102,inactive: -0.063,inactive: -0.156,inactive: -0.113,inactive: 0.072,inactive: -0.139,inactive: 0.015
GRB2 (UniProt P62993),inactive: 0.009,inactive: 0.033,inactive: 0.03,inactive: 0.025,inactive: 0.023,inactive: 0.005,inactive: 0.021,inactive: -0.023,inactive: 0.017,inactive: -0.037
GSK3A (UniProt P49840),inactive: -0.026,inactive: 0.207,inactive: 0.069,inactive: -0.002,inactive: 0.016,active: 0.641,inactive: -0.017,inactive: 0.002,inactive: 0.008,inactive: -0.02
HARS2 (UniProt P49590),inactive: 0.012,inactive: -0.025,inactive: -0.136,inactive: 0.025,inactive: 0.14,inactive: -0.035,inactive: -0.061,inactive: 0.026,inactive: 0.031,inactive: -0.013
GSPT2 (UniProt Q8IYD1),inactive: 0.001,inactive: -0.056,inactive: -0.065,inactive: -0.098,inactive: -0.042,inactive: 0.077,inactive: 0.008,inactive: -0.009,inactive: -0.092,inactive: 0.014
GSTCD (UniProt Q8NEC7),inactive: -0.006,inactive: -0.015,inactive: -0.037,inactive: -0.058,inactive: 0.09,inactive: 0.036,inactive: -0.037,inactive: 0,inactive: -0.053,inactive: 0.01
GRK6 isoform 2 (UniProt P43250),inactive: -0.122,inactive: -0.088,inactive: 0.084,inactive: -0.066,inactive: -0.04,inactive: 0.058,inactive: -0.063,inactive: 0.046,inactive: 0.065,inactive: 0.028
GTF2F1 (UniProt P35269),inactive: -0.002,inactive: -0.004,inactive: 0.01,inactive: -0.12,inactive: -0.009,inactive: 0.09,inactive: -0.012,inactive: -0.046,inactive: 0.026,inactive: 0.027
GRPEL2 (UniProt Q8TAA5),inactive: -0.042,inactive: -0.023,inactive: 0.007,inactive: -0.198,inactive: 0.026,inactive: 0.019,inactive: -0.092,inactive: -0.024,inactive: -0.071,inactive: 0.077

# Reference: the supplement of paper PMC10849652
